This note sets out measurements from article PMC8450433.

Protein sequences, listed by entry. Tags and fused reporters are not part of them. Residues count along the entry.
UniProt P05067, residues 672-713: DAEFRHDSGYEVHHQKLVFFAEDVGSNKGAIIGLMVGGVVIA

The experiment deals with β-amyloid peptide (Aβ42) (UniProt P05067). Kind of experiment: co-IP; APP/PS1 mouse brain lysate (6-month-old mice, 4 mg protein, pre-cleared with protein G); IP with the anti-Aβ antibody MOAB2 (1:200) and protein G beads overnight at 4°C; western blot for MOAB2 (Aβ42) and Gpc4.

No constants are given. Whether binding was seen depends on the method and setting. Binding seen in cells or lysates may run through a third protein. Some entries that bind do so weakly or less than the wild type.

B1: glypican 4 (protein, UniProt P51655 19-529)
chain: SLLAAELKSKSCSEVRRLYVSKGFNKNDAPLYEINGDHLKICPQDYTCCSQEMEEKYSLQSKDDFKTVVSEQCNHLQAIFASRYKKFDEFFKELLENAEKSLNDMFVKTYGHLYMQNSELFKDLFVELKRYYVAGNVNLEEMLNDFWARLLERMFRLVNSQYHFTDEYLECVSKYTEQLKPFGDVPRKLKLQVTRAFVAARTFAQGLAVARDVVSKVSVVNPTAQCTHALLKMIYCSHCRGLVTVKPCYNYCSNIMRGCLANQGDLDFEWNNFIDAMLMVAERLEGPFNIESVMDPIDVKISDAIMNMQDNSVQVSQKVFQGCGPPKPLPAGRISRSISESAFSARFRPYHPEQRPTTAAGTSLDRLVTDVKEKLKQAKKFWSSLPSTVCNDERMAAGNENEDDCWNGKGKSRYLFAVTGNGLANQGNNPEVQVDTSKPDILILRQIMALRVMTSKMKNAYNGNDVDFFDISDESSGEGSGSGCEYQQCPSEFEYNATDHSGKSANEKADS
As to B1, the binding entry is given as “binds”.
